Some results were stated once for a whole list of compounds, not compound by compound. At least one compound was matched to its structure with a doubt left.
How the values were obtained:
[1] = target: mitochondrial benzodiazepine receptor (mBzR) (Homo sapiens, UniProt P30536); experiment: Inhibition of tritiated PK11195 binding to the receptor; conditions: read-out: inhibition of PK11195 binding to mBzR, affinity class
Procedure: Standard methods e.g., competition assays, are used to determine ge an inhibition, prevention or delay in binding of a ligand of a mitochondrial benzodiazepine receptor by a low molecular weight porphyrin derivative compound of the invention. As exemplified herein, labelled PK11195 compound is contacted with the receptor in the presence of different concentrations of a compound being tested and binding of the labelled PK11195 compound is determined. […] Preferably, the concentration of the compound being tested that inhibits binding of the ligand by 50% (i.e., […]) is determined.
FIG. 15 is a graphical representation showing the ability of the compounds {[{(Porphine-5,15-diyl)bis[cyclopropyl-diyl]}](2-)-N^21,N^22,N^23,N^24} manganese (III) acetate (EUK-418) and (5,10,15,20-Tetra ethylporphyrinato) manganese (III) acetate (EUK-425) to inhibit binding of tritiated PK11195 to the mitochondrial benzodiazepine receptor (mBzR). The Ki value for each compound is indicated.
FIG. 16 is a tabular representation showing a series of low molecular weight metalloporphyrin compounds designated EUK-418, EUK-423, EUK-424, EUK-425 and EUK-426, that inhibit ligand binding to the mitochondrial benzodiazepine receptor (mBzR) with moderate affinity, as determined by the Ki value (last column) for inhibition of tritiated PK11195, binding to the receptor. […]

Protein sequences, listed by entry. Tags and fused reporters are not part of them.
UniProt P30536, whole entry, species assumed: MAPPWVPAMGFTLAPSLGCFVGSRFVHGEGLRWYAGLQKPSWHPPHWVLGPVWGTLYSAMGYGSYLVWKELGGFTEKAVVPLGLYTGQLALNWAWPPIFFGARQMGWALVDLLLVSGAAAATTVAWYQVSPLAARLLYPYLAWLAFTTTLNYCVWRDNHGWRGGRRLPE

[2] = tested on: Bovine capillary endothelial cells; experiment: Cytotoxicity/necrosis of non-irradiated cells (LDH release, field number); type: cell-based; conditions: no ionizing radiation
Procedure: Bovine capillary endothelial cells were cultured on eight-chamber Labtek slides and exposed to ionizing radiation (20 Gy), which was calibrated using an X-ray exposure meter. […] In control experiments, cells either received no ionizing radiation (sham) or no compound. After 6 h incubation, the cells were fixed in methanol and stained with 5 μg/ml 4,6-diamidino-2-phenylindole (DAPI). DNA was visualized using a Nikon epifluorescence microscope, and apoptosis was scored and expressed as an apoptotic index (% apoptotic cells in a field of 100). […] Field number was also calculated for all other compounds tested as a control (results not shown).
To determine cytotoxicity of the compounds under these conditions, duplicate samples of the cells receiving a dose of compound at each concentration tested in the absence of a dose of ionizing radiation were assayed for release of LDH into the culture medium.

CC(=O)[O-].CC(C)c1c2nc(c(C(C)C)c3ccc([n-]3)c(C(C)C)c3nc(c(C(C)C)c4ccc1[n-]4)C=C3)C=C2.[Mn+3] [EUK-424, (5,10,15,20-Tetraisopropylporphyrinato)manganese (III) acetate]
Ki [1]: < 5 µM

C1=Cc2nc1cc1ccc([n-]1)c(-c1ccccc1)c1nc(cc3ccc([n-]3)c2-c2ccccc2)C=C1.CC(=O)[O-].[Mn+3] [EUK-423, {[{(Porphine-5,15-diyl)bis[benzyl-diyl]}](2-)-N^21,N^22,N^23,N^24} manganese(III) acetate]
concentration that is cytotoxic / induces significant necrosis (LDH release) [2]: ≥ 30 µM

CC(=O)[O-].Cc1c2nc(c(C)c3ccc([n-]3)c(C)c3nc(c(C)c4ccc1[n-]4)C=C3)C=C2.[Mn+3] [EUK-426, (5,10,15,20-Tetramethylporphyrinato)manganese (III) acetate]
Ki [1]: < 5 µM

C1=Cc2nc1cc1ccc([n-]1)c(C1CC1)c1nc(cc3ccc([n-]3)c2C2CC2)C=C1.CC(=O)[O-].[Mn+3] [EUK-418, {[{(Porphine-5,15-diyl)bis[cyclopropyl-diyl]}](2-)-N^21,N^22,N^23,N^24} manganese(III) acetate]
concentration that is cytotoxic / induces significant necrosis (LDH release) [2]: ≥ 30 µM
